Measurements published in paper doi:10.1101/2022.10.27.514150.
These are yes or no findings as the source states them, for the method shown. Binding seen in cells or lysates may run through a third protein. Some binding calls cover weakened binding; strength is not graded here. For part of these data: Sequences can lack the tags named with a protein.

Chains of the proteins cited; added tags and fusions are not shown. Lines headed by an entry give the natural chain unless they say otherwise; changes in a name come on top.
UniProt Q08999: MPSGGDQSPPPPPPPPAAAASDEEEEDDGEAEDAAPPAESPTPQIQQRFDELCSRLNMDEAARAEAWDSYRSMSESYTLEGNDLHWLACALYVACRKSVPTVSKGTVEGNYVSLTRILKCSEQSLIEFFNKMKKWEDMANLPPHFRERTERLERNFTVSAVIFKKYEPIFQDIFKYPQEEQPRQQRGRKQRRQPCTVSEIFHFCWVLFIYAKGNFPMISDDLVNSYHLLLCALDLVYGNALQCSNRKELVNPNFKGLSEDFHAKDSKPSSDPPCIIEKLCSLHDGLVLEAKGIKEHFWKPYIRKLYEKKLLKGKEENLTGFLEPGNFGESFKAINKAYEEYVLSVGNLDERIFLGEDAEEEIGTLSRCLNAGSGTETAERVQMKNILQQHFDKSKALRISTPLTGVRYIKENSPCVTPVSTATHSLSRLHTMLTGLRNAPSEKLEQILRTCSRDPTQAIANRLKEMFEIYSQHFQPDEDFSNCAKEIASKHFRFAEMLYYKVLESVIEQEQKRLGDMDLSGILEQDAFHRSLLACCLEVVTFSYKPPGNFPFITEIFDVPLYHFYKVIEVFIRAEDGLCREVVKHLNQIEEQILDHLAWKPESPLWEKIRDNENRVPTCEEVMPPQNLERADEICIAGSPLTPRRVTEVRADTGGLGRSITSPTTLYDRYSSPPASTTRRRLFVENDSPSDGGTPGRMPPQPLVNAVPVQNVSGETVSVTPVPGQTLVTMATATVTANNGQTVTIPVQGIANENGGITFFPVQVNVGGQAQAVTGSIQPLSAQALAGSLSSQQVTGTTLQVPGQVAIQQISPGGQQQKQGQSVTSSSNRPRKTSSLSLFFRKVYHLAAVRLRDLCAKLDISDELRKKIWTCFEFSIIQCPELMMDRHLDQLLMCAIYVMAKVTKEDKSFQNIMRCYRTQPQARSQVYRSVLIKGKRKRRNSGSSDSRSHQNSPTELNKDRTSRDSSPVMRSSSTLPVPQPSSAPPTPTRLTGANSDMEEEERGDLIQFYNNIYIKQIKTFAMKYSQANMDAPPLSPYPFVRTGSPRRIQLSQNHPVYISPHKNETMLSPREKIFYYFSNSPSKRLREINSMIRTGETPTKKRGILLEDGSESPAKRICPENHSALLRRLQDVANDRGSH
UniProt Q16254: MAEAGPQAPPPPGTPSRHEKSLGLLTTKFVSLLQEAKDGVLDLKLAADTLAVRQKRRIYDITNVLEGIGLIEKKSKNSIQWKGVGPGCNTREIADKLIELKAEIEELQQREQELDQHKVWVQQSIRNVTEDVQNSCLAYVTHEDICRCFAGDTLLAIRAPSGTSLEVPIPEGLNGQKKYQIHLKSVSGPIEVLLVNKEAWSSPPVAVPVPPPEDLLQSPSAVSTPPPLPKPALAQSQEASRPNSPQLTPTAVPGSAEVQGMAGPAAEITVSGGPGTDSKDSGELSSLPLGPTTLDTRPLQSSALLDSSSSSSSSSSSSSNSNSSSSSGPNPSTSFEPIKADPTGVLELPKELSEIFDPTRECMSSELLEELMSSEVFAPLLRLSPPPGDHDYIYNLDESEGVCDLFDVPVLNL
UniProt P03129: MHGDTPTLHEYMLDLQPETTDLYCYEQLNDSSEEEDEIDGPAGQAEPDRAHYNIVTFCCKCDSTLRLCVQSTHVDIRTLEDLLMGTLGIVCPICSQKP
UniProt Q14186: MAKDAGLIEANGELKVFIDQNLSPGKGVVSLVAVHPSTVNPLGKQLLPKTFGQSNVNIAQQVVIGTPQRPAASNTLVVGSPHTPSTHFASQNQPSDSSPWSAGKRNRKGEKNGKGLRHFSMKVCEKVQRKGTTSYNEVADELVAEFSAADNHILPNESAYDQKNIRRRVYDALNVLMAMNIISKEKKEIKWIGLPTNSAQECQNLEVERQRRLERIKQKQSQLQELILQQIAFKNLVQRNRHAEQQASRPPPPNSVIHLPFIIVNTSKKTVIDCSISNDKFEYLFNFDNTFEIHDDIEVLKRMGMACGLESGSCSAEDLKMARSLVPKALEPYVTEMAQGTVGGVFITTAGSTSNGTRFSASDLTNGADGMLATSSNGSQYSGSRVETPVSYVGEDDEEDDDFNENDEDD

Tests used:
Gluc1-ΔN(14–348) = target: T1, Gluc1-ΔN(14–348) (UniProt O15350); test: split reporter
T1 sequence: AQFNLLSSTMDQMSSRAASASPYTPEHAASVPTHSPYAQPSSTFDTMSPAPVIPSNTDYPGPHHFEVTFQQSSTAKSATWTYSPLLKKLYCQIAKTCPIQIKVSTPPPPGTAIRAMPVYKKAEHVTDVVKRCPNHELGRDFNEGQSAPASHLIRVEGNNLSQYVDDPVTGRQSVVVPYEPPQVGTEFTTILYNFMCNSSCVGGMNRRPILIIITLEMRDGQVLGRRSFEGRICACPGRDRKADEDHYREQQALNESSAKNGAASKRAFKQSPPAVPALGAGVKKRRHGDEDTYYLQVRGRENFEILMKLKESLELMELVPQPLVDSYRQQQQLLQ

Gluc1-TAp63α = target: T2, Gluc1-TAp63α (UniProt Q9H3D4); test: split reporter
T2 sequence: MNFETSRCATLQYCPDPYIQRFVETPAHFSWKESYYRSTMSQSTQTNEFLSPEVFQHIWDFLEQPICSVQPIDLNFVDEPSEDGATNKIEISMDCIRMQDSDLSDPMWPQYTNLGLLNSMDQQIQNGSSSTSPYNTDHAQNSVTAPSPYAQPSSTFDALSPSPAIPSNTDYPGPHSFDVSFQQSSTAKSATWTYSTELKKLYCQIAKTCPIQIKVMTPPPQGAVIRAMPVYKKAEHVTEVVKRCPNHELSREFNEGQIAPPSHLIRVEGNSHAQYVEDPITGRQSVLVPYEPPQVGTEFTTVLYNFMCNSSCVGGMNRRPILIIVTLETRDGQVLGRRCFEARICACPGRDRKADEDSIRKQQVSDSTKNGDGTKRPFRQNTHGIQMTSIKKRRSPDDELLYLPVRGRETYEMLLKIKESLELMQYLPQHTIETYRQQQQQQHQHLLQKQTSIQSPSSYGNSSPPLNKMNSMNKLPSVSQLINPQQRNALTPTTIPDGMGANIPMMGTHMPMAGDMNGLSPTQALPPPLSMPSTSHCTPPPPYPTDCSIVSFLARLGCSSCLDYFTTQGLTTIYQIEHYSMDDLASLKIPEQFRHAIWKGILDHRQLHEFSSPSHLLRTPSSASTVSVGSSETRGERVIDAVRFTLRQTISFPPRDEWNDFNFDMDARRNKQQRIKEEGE

Gluc1-ΔN(262–348) = target: T3, Gluc1-ΔN(262–348) (UniProt O15350); test: split reporter
T3 sequence: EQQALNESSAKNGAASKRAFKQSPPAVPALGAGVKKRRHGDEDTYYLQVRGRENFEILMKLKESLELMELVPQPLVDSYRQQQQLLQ

Gluc1-ΔN(1–348) = target: T4, Gluc1-ΔN(1–348) (UniProt O15350); test: split reporter
T4 sequence: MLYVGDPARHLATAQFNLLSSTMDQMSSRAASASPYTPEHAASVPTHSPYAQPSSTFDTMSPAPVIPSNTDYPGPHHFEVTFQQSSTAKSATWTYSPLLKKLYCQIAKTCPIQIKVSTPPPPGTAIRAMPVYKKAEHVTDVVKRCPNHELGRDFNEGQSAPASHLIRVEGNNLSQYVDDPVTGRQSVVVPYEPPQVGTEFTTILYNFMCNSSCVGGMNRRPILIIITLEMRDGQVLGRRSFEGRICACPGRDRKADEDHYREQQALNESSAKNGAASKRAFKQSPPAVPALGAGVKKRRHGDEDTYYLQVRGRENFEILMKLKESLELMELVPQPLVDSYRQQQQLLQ

Gluc1-ΔNp73α FL = Gluc1-ΔNp73α FL (UniProt O15350); test: split reporter
Gluc2-pRb = target: T5, Gluc2-pRb (UniProt P06400); test: split reporter
T5 sequence: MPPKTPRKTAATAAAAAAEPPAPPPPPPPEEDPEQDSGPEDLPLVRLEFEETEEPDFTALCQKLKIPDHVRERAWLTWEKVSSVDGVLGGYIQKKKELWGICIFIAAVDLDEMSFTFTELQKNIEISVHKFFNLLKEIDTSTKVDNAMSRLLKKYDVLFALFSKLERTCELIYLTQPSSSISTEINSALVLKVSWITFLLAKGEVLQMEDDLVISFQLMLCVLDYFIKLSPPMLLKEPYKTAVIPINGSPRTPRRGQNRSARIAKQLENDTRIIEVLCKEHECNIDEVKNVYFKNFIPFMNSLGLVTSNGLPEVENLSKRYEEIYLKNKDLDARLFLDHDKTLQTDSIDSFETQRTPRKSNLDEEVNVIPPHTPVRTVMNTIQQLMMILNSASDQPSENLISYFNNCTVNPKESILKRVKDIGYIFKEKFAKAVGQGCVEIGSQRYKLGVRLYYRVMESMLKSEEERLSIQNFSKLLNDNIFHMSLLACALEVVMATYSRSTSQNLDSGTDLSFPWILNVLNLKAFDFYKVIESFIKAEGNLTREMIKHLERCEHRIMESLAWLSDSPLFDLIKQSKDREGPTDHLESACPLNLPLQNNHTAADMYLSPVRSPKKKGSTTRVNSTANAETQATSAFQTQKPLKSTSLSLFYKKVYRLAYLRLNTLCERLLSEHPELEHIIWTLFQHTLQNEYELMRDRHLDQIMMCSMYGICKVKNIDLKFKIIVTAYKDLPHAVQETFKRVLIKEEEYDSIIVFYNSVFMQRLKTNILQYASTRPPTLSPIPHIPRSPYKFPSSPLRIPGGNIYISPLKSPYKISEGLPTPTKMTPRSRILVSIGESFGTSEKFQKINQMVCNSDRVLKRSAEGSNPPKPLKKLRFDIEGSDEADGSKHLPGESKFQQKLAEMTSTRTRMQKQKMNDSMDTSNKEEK

Gluc2-p130 (human) = Gluc2-p130 (human) (UniProt Q08999); test: split reporter
Gluc2-p107 = target: T6, Gluc2-p107 (UniProt P28749); test: split reporter
T6 sequence: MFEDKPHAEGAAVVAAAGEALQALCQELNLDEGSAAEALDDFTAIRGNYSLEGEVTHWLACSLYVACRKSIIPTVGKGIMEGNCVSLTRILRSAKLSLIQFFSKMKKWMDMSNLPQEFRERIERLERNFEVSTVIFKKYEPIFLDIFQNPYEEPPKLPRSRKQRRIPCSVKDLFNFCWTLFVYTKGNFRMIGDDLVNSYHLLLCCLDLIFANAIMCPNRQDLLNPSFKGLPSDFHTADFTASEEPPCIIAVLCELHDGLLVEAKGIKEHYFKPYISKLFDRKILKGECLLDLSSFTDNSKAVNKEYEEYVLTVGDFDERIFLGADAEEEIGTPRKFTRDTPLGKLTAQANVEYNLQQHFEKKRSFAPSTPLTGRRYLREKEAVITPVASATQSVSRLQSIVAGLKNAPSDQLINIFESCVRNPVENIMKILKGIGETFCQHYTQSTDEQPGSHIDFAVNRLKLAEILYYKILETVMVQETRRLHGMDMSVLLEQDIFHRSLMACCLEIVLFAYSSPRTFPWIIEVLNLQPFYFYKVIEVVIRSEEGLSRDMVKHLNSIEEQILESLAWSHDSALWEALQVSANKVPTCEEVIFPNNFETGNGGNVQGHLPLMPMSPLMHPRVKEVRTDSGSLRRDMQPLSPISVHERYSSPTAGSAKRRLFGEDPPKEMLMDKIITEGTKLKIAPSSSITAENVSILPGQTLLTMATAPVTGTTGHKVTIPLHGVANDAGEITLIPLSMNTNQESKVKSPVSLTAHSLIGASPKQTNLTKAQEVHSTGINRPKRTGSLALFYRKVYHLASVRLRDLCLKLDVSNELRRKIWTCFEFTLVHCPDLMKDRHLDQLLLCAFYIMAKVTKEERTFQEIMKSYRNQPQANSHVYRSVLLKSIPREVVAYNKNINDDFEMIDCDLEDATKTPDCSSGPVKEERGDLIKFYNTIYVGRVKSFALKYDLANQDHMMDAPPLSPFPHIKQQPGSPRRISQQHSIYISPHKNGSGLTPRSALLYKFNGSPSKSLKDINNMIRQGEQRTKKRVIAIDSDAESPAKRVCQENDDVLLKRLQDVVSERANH

MBP-ΔNp73α FL = target: T7, MBP-ΔNp73α FL (UniProt O15350); test: pull-down
T7 sequence: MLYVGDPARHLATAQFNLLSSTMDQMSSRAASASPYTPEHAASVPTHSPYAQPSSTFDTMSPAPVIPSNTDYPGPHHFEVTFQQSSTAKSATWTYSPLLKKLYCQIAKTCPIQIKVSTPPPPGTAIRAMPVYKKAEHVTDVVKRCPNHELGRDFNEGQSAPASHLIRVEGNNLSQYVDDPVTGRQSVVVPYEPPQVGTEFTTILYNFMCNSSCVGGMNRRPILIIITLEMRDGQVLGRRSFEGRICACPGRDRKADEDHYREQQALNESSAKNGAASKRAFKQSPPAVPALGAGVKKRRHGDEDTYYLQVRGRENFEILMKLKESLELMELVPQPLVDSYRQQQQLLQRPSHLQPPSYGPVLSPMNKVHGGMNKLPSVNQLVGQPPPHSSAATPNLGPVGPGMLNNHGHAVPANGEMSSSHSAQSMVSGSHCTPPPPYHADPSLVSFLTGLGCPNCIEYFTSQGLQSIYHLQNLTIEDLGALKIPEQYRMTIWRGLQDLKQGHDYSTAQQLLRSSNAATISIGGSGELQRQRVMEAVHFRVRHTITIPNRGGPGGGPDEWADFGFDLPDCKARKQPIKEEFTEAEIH

MBP-TAp73α FL = target: T8, MBP-TAp73α FL (UniProt O15350); test: pull-down
T8 sequence: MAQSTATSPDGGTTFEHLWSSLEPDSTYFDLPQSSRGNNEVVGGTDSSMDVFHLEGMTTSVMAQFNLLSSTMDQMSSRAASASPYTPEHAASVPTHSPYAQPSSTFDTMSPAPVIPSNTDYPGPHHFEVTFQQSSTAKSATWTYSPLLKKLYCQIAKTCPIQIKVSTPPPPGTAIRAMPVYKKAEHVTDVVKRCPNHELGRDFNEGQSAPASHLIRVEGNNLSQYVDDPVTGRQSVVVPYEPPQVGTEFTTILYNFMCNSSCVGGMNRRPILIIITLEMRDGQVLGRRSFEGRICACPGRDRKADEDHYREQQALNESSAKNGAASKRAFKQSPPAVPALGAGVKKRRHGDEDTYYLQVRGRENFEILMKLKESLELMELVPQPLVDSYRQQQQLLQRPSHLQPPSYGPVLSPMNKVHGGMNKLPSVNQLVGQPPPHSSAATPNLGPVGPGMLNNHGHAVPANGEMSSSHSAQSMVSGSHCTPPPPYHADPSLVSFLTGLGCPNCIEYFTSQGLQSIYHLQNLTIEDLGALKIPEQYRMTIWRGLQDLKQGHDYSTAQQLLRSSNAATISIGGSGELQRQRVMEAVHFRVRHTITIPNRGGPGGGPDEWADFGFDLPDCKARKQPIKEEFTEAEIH

Substance: Gluc2-E2F4 FL (from UniProt Q16254 1-413)
- binding (Gluc1-ΔN(14–348)): binds
- binding (Gluc1-TAp63α): no binding
- binding (Gluc1-ΔN(262–348)): binds
- binding (Gluc1-ΔN(1–348)): binds

Substance: Gluc2-p130 (from UniProt Q08999 1-1139)
- binding (Gluc1-ΔNp73α FL): no binding
- binding (Gluc1-TAp63α): no binding

Substance: Gluc1-16.E7 (from UniProt P03129 1-98)
- binding (Gluc2-pRb): binds
- binding (Gluc2-p130 (human)): binds
- binding (Gluc2-p107): binds

Substance: Gluc2-DP1 (from UniProt Q14186 1-410)
- binding (Gluc1-ΔNp73α FL): no binding
- binding (Gluc1-TAp63α): no binding

Substance: Gluc2-E2F(1–196) (from UniProt Q16254 1-196) (domain or fragment)
- binding (Gluc1-ΔNp73α FL): binds

Substance: Gluc2-E2F(89–196) (from UniProt Q16254 89-196) (domain or fragment)
- binding (Gluc1-ΔNp73α FL): binds

Substance: 3xFlag-E2F4 FL (from UniProt Q16254 1-413)
- binding (MBP-ΔNp73α FL): binds
- binding (MBP-TAp73α FL): binds
